Results on 35 targets are retold here after the supplement of paper PMC10849652.

Chains of the proteins cited; added tags and fusions are not shown. Lines headed by an entry give the natural chain unless they say otherwise; changes in a name come on top.
UniProt P13196: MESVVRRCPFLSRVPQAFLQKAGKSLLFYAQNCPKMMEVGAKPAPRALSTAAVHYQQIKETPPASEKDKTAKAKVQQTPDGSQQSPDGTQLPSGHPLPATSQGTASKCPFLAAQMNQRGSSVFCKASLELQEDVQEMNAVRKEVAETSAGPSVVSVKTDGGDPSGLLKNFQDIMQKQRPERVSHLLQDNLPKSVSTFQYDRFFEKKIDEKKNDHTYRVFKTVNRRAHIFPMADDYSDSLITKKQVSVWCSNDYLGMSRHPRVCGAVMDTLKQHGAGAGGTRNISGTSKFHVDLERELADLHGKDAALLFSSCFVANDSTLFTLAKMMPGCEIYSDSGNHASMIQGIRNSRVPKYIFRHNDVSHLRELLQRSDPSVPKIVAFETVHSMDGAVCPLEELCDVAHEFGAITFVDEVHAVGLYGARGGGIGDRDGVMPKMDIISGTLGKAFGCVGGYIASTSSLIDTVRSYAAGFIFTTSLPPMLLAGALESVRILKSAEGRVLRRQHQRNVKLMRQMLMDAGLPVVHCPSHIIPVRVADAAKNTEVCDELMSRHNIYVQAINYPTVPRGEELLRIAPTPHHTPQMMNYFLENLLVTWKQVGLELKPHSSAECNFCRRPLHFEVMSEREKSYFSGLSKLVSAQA
UniProt Q9BXX3: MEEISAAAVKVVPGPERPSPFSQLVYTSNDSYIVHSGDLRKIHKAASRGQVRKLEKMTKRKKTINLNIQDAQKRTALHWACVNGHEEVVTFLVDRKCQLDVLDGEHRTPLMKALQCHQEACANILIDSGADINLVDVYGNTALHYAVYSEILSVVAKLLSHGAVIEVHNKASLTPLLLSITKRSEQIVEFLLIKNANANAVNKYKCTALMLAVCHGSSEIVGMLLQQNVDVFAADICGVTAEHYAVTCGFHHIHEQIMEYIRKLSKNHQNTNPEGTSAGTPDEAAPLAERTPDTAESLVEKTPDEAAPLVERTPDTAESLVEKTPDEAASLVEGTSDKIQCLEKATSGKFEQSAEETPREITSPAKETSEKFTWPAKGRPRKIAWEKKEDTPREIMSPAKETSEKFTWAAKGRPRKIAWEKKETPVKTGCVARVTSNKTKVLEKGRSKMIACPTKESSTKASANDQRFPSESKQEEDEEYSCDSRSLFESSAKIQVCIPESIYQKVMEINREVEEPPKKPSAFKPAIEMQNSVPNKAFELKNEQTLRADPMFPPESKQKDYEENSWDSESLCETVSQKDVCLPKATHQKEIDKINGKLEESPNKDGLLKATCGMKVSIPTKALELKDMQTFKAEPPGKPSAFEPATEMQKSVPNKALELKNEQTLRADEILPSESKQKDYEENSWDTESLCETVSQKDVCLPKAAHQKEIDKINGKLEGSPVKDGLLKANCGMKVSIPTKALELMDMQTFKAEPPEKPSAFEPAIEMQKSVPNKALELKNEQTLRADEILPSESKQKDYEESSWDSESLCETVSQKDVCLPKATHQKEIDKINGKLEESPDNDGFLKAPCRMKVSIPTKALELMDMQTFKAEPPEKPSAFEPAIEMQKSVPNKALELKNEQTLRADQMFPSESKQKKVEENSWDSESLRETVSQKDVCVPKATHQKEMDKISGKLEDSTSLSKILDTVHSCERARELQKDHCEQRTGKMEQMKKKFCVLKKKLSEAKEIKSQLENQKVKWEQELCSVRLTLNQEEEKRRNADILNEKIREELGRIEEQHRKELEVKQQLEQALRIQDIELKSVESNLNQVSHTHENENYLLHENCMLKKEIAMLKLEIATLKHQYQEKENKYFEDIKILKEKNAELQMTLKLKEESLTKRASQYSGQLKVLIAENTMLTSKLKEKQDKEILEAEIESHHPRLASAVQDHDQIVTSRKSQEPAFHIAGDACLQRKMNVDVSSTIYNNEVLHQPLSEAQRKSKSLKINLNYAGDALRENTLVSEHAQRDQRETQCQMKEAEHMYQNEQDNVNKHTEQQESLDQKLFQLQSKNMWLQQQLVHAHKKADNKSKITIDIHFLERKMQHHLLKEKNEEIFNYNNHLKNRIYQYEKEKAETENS
UniProt Q8N8A2: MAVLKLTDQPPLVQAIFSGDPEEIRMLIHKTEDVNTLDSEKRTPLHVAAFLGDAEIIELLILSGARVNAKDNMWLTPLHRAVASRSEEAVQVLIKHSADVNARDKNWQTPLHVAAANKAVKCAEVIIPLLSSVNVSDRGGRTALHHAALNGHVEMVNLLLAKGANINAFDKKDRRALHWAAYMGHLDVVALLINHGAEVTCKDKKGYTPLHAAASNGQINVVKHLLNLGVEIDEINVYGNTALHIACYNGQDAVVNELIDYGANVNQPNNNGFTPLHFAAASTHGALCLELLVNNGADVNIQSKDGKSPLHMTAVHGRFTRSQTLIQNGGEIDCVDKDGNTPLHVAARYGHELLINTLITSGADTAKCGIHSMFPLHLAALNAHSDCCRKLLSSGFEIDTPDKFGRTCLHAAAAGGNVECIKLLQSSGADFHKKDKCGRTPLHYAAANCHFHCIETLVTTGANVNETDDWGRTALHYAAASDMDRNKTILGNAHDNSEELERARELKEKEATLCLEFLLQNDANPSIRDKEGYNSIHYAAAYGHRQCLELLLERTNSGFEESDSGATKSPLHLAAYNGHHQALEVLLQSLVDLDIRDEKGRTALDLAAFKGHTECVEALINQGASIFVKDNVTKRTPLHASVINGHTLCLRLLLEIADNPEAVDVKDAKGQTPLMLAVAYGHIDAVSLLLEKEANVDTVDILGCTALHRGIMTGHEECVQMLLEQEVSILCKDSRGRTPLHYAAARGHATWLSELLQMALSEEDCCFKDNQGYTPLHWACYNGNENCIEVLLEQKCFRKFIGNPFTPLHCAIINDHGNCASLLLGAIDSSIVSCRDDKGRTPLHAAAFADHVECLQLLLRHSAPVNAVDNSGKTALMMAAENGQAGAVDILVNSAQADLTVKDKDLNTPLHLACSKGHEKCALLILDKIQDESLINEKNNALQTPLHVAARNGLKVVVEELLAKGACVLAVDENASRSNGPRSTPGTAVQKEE
UniProt Q86XL3: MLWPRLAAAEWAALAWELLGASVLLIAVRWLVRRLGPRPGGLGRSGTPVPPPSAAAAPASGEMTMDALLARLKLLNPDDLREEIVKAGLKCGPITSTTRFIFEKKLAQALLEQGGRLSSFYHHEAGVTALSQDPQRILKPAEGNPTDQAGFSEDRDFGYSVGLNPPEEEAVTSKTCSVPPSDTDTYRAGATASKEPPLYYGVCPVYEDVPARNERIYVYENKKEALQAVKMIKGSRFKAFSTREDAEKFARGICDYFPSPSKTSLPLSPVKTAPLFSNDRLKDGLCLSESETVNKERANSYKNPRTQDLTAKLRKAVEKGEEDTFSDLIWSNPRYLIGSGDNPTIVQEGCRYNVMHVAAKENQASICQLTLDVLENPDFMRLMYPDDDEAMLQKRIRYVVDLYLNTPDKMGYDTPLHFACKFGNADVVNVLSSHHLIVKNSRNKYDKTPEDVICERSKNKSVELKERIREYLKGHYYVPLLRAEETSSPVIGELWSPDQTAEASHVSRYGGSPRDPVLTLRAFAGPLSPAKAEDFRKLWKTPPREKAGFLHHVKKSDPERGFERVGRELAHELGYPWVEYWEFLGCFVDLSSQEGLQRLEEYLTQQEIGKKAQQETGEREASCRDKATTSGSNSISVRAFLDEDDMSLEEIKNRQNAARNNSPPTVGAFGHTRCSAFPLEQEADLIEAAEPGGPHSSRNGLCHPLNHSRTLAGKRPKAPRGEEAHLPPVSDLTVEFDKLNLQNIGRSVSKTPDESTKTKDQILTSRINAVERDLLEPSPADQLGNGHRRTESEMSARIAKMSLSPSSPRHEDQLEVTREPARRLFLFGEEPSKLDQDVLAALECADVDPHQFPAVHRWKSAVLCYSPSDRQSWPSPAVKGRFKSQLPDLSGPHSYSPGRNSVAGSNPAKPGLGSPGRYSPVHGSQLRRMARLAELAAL
UniProt P53677: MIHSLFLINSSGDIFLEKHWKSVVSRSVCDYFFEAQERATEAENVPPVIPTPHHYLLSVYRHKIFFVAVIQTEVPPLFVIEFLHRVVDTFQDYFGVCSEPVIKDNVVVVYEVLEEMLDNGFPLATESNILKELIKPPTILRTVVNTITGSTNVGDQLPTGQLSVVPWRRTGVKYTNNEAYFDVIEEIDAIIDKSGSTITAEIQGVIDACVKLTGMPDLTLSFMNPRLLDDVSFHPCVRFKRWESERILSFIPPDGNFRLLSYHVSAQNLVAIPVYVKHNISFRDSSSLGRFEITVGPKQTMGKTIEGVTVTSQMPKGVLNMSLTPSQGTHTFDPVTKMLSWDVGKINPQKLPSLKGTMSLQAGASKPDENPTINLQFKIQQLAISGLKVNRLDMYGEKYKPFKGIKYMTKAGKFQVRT
UniProt Q10567: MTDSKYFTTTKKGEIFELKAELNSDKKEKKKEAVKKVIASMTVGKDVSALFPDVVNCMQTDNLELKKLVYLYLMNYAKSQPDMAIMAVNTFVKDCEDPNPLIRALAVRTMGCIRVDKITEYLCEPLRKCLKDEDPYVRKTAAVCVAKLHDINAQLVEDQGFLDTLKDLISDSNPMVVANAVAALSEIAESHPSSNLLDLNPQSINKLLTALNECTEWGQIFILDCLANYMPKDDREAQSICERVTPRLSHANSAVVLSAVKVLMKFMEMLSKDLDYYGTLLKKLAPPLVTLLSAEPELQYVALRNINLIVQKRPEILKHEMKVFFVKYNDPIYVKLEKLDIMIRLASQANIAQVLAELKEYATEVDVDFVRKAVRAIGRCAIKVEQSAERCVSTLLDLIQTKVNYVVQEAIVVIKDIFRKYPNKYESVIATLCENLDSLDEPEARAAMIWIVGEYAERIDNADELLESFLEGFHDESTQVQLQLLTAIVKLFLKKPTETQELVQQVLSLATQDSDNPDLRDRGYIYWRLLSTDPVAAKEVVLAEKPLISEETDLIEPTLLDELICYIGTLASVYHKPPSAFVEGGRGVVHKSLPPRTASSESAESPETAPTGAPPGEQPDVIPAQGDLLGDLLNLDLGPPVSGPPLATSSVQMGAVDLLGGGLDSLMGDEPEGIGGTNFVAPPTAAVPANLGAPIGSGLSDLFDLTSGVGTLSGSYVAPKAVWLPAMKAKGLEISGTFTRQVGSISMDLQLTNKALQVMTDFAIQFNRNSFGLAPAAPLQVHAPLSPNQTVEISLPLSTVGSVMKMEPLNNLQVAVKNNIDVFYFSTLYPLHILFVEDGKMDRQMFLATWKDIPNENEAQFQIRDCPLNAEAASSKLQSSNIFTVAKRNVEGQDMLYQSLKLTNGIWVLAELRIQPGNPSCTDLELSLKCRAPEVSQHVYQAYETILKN
UniProt Q9BV10: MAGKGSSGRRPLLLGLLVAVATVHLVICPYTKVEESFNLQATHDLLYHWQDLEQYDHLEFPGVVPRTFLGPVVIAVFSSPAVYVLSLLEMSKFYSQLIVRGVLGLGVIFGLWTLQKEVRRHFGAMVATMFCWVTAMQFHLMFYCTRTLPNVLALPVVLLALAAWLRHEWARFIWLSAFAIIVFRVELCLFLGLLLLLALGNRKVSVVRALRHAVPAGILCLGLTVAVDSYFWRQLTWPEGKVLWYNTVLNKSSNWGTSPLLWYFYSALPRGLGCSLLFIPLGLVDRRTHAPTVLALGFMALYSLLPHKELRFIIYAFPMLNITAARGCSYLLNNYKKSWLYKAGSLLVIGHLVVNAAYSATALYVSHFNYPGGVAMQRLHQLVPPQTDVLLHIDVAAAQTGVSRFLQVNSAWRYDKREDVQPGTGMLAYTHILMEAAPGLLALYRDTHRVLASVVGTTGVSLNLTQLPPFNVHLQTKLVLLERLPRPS
UniProt Q92685: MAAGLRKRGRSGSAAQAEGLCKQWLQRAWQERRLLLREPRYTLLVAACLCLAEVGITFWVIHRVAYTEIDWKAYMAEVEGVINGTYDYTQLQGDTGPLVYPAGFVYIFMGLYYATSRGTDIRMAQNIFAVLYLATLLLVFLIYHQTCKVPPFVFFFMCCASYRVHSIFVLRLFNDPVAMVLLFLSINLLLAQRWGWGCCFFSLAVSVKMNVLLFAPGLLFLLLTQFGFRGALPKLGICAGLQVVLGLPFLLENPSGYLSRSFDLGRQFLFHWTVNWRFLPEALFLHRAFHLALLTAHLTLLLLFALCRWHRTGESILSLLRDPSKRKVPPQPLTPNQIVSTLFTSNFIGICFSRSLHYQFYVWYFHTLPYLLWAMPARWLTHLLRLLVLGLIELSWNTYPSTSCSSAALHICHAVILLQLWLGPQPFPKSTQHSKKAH
UniProt Q9H8T0: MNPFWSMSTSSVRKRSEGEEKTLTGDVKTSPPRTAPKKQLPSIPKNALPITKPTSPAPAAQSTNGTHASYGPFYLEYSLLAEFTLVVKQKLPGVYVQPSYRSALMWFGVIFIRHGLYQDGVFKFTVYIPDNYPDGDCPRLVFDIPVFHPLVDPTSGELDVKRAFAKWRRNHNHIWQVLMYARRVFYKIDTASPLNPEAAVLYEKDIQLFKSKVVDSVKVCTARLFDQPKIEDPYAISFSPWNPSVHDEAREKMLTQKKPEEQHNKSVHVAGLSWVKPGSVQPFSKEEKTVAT

The other results are listed elsewhere or left out.

Compound in the first assay: C=CC(=O)N1CCC[C@@H](n2nc(-c3ccc(Oc4ccccc4)cc3)c3c(N)ncnc32)C1 [ibrutinib]
As to the kind of experiment: log2 fold change, soluble protein after heating vs DMSO (PISA); higher = thermal stabilisation; K562 lysate, 10 uM; active = over 0.2 and 3.5 SD of the protein, either way, in both replicates (recomputed). The essentials:
(§1)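 K562 pellets were dounce-homogenised in PBS pH 7.4 containing 1 mM MgCl2, and the crude extract, at 1 mg/mL protein, was exposed to 10 μM compound for 30 min. Aliquots were heated for 3 min across 48°C-58°C, pooled, brought to 0.5% NP-40 at 4°C and spun at 21,000xg for 90 min, with the supernatant taken as soluble protein. TMTpro 16plex LC-MS/MS with equalised channel sums quantified that protein. Values are log-two fold changes in thermal stability relative to solvent controls, taken from duplicates.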
With ALAS1 (UniProt P13196), the log2 fold change is inactive: -0.055.

On to ANKRD31 (UniProt Q8N7Z5), for which the log2 fold change was inactive: -0.027.

As to ALG11 (UniProt Q2TAA5), the log2 fold change was inactive: -0.339.

As to ANKRD29 (UniProt Q8N6D5), the log2 fold change was inactive: 0.022.

Take ANKRD13C (UniProt Q8N6S4): the log2 fold change was inactive: -0.054.

Turning to ANKRD30A (UniProt Q9BXX3), the log2 fold change is inactive: -0.01.

Consider ANKRD40 (UniProt Q6AI12), for which the log2 fold change is inactive: 0.008.

With ANKRD44 isoform 2 (UniProt Q8N8A2), the log2 fold change was inactive: -0.131.

As for ANGPTL4 (UniProt M0R3A2), the log2 fold change was inactive: 0.057.

Take AP2S1 (UniProt M0QZ21): the log2 fold change is inactive: -0.125.

Turning to ANKHD1 isoform 2 (UniProt Q8IWZ3), the log2 fold change is inactive: 0.017.

Consider AP4M1 (UniProt O00189), for which the log2 fold change is inactive: 0.047.

AMOTL1 (UniProt Q8IY63): the log2 fold change is inactive: -0.057.

On to ALDH9A1 (UniProt P49189), for which the log2 fold change is inactive: -0.093.

Turning to ANAPC11 (UniProt Q9NYG5), the log2 fold change is inactive: -0.154.

In the case of ANKLE2 (UniProt Q86XL3), the log2 fold change is inactive: 0.005.

With ANKRD16 (UniProt Q6P6B7), the log2 fold change is inactive: 0.161.

Take AP3M2 (UniProt P53677): the log2 fold change was inactive: -0.058.

Turning to ANKS3 (UniProt Q6ZW76), the log2 fold change is inactive: -0.167.

Consider ALOX12B (UniProt O75342), for which the log2 fold change was inactive: -0.144.

As for ANP32E isoform 3 (UniProt Q9BTT0), the log2 fold change was inactive: -0.065.

AP1B1 isoform 3 (UniProt Q10567): the log2 fold change is inactive: 0.002.

For the target ALG12 (UniProt Q9BV10), the log2 fold change is inactive: 0.118.

ALDOA (UniProt H3BPS8): the log2 fold change was inactive: 0.116.

Consider ALG3 (UniProt Q92685), for which the log2 fold change is inactive: -0.163.

Regarding ANK2 (UniProt Q01484), the log2 fold change was inactive: -0.158.

Compound in the next assay: CC(=O)c1cnc2ccc(-c3cc(Cl)c(O)c(Cl)c3)nc2c1N[C@H]1CC[C@H](CN(C)C)CC1
The assay is described as above. The essentials:
as §1
Consider ALAS1 (UniProt P13196), for which the log2 fold change was inactive: -0.05.

With AMBRA1 isoform 5 (UniProt Q9C0C7), the log2 fold change is inactive: 0.119.

Regarding ANKRD31 (UniProt Q8N7Z5), the log2 fold change is inactive: 0.208.

Turning to ANKRD29 (UniProt Q8N6D5), the log2 fold change is inactive: -0.047.

In the case of ANKRD30A (UniProt Q9BXX3), the log2 fold change is inactive: 0.77.

Regarding ANAPC16 (UniProt Q96DE5), the log2 fold change is inactive: -0.052.

As for ANKRD44 isoform 2 (UniProt Q8N8A2), the log2 fold change is inactive: 0.067.

As for ANXA6 (UniProt E5RK69), the log2 fold change was inactive: -0.102.

Turning to ANGPTL4 (UniProt M0R3A2), the log2 fold change was inactive: -0.011.

In the case of AKTIP isoform 2 (UniProt Q9H8T0), the log2 fold change was inactive: 0.176.

For the target AP2S1 (UniProt M0QZ21), the log2 fold change was inactive: -0.084.

For the target ANKHD1 (UniProt D6RHC4), the log2 fold change is inactive: 0.05.

For ANKRD50 (UniProt Q9ULJ7), the log2 fold change was inactive: 0.02.

In the case of ANKH (UniProt Q9HCJ1), the log2 fold change was inactive: 0.008.

Consider ANKRD16 (UniProt Q6P6B7), for which the log2 fold change is inactive: -0.016.

On to AP3M2 (UniProt P53677), for which the log2 fold change was inactive: 0.065.

For ANKS3 (UniProt Q6ZW76), the log2 fold change is inactive: -0.01.

Turning to ALG12 (UniProt Q9BV10), the log2 fold change is inactive: -0.003.

With AP3D1 isoform 2 (UniProt O14617), the log2 fold change is inactive: -0.085.

Regarding ALDH3A1 (UniProt P30838), the log2 fold change was inactive: -0.197.

As to ALDOA (UniProt H3BPS8), the log2 fold change is inactive: 0.066.

For the target ALG3 (UniProt Q92685), the log2 fold change is inactive: 0.03.

Compound in another assay: CC(C)(C)Cn1c(N)nc2ccc(-c3[nH]c(C(C)(C)C)nc3-c3ccc(F)cc3)nc21 [ralimetinib]
The assay is described as above. The essentials:
as §1
Take ALAS1 (UniProt P13196): the log2 fold change is inactive: -0.048.

Take AMBRA1 isoform 5 (UniProt Q9C0C7): the log2 fold change was inactive: -0.058.

Regarding ALG11 (UniProt Q2TAA5), the log2 fold change was inactive: 0.03.

With ANKRD13C (UniProt Q8N6S4), the log2 fold change is inactive: 0.

With ANKRD30A (UniProt Q9BXX3), the log2 fold change is inactive: 0.014.

For the target ANKRD40 (UniProt Q6AI12), the log2 fold change was inactive: 0.062.

ANAPC16 (UniProt Q96DE5): the log2 fold change is inactive: 0.052.

As for ANGPTL4 (UniProt M0R3A2), the log2 fold change was inactive: -0.076.

In the case of AKTIP isoform 2 (UniProt Q9H8T0), the log2 fold change was inactive: 0.182.

ANKHD1 isoform 2 (UniProt Q8IWZ3): the log2 fold change is inactive: 0.023.

As for ANKHD1 (UniProt D6RHC4), the log2 fold change is inactive: 0.029.

As for ANKRD50 (UniProt Q9ULJ7), the log2 fold change was inactive: -0.022.

As to AP4M1 (UniProt O00189), the log2 fold change was inactive: -0.01.

For AMOTL1 (UniProt Q8IY63), the log2 fold change is inactive: -0.001.

As for ALDH9A1 (UniProt P49189), the log2 fold change is inactive: 0.046.

With ANKH (UniProt Q9HCJ1), the log2 fold change was inactive: -0.08.

As for ANAPC11 (UniProt Q9NYG5), the log2 fold change is inactive: 0.016.

As to ANKLE2 (UniProt Q86XL3), the log2 fold change was inactive: -0.009.

As to AP3M2 (UniProt P53677), the log2 fold change is inactive: -0.036.

Regarding ALOX12B (UniProt O75342), the log2 fold change was inactive: -0.127.

Turning to AP1B1 isoform 3 (UniProt Q10567), the log2 fold change is inactive: -0.111.

ALG12 (UniProt Q9BV10): the log2 fold change is inactive: 0.048.

With ALDH3A1 (UniProt P30838), the log2 fold change was inactive: -0.274.

On to ALG3 (UniProt Q92685), for which the log2 fold change is inactive: -0.007.

For ANK2 (UniProt Q01484), the log2 fold change was inactive: -0.025.
